Laboratory results as given in the supplement of paper PMC10849652.
Some of the results follow.

Sequences of proteins named here, by UniProt entry; tags and fusion partners are left off. A change or cut given only in a name is not applied to a line headed by its entry.
UniProt Q9GZT8: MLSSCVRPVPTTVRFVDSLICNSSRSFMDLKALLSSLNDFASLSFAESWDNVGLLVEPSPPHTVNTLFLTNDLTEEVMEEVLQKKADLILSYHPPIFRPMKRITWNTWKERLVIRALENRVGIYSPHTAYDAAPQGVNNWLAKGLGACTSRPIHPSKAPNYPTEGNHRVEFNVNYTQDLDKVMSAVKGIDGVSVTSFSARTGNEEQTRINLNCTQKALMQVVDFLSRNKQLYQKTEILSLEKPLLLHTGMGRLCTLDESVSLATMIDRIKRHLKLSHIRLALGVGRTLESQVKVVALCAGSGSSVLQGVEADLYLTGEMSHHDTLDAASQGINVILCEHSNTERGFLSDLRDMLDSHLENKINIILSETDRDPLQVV
UniProt Q9UMX5: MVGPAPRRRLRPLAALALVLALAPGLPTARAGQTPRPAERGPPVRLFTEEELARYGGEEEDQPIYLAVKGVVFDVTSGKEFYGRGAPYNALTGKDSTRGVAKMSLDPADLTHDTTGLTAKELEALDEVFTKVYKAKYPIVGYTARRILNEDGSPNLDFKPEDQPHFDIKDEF
UniProt P28331, whole entry, looked up: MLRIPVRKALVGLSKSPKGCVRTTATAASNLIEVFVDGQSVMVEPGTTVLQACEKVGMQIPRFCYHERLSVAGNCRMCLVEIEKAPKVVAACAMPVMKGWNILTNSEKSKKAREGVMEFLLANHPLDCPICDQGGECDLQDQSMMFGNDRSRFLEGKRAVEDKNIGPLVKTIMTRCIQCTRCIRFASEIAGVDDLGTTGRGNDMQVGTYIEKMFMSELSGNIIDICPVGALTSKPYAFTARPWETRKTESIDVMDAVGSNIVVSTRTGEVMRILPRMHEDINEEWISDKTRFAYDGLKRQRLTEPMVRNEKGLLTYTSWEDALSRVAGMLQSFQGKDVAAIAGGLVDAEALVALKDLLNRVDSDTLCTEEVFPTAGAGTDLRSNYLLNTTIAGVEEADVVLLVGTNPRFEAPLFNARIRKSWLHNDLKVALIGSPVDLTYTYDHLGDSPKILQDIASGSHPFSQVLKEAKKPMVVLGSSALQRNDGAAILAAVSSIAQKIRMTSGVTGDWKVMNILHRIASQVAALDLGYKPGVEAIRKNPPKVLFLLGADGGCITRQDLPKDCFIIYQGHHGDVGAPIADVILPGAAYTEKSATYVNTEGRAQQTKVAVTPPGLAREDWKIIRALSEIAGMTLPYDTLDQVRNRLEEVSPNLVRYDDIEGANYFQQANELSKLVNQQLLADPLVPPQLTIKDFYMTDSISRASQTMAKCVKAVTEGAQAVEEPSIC
UniProt Q9BS92: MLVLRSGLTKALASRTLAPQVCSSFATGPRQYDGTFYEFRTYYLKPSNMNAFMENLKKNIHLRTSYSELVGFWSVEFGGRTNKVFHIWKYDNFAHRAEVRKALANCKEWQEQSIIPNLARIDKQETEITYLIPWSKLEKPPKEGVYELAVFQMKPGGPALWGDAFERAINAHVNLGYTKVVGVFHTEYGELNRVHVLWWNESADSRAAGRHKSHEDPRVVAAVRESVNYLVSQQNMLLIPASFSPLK
UniProt O75323: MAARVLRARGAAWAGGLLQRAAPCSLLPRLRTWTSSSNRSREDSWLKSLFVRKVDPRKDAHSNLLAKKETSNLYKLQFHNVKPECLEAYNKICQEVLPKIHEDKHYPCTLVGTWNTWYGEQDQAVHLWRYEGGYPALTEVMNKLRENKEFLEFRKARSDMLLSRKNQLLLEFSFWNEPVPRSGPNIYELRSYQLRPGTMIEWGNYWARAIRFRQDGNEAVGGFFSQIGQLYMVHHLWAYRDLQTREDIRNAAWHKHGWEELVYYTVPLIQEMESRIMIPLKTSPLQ
UniProt Q92859: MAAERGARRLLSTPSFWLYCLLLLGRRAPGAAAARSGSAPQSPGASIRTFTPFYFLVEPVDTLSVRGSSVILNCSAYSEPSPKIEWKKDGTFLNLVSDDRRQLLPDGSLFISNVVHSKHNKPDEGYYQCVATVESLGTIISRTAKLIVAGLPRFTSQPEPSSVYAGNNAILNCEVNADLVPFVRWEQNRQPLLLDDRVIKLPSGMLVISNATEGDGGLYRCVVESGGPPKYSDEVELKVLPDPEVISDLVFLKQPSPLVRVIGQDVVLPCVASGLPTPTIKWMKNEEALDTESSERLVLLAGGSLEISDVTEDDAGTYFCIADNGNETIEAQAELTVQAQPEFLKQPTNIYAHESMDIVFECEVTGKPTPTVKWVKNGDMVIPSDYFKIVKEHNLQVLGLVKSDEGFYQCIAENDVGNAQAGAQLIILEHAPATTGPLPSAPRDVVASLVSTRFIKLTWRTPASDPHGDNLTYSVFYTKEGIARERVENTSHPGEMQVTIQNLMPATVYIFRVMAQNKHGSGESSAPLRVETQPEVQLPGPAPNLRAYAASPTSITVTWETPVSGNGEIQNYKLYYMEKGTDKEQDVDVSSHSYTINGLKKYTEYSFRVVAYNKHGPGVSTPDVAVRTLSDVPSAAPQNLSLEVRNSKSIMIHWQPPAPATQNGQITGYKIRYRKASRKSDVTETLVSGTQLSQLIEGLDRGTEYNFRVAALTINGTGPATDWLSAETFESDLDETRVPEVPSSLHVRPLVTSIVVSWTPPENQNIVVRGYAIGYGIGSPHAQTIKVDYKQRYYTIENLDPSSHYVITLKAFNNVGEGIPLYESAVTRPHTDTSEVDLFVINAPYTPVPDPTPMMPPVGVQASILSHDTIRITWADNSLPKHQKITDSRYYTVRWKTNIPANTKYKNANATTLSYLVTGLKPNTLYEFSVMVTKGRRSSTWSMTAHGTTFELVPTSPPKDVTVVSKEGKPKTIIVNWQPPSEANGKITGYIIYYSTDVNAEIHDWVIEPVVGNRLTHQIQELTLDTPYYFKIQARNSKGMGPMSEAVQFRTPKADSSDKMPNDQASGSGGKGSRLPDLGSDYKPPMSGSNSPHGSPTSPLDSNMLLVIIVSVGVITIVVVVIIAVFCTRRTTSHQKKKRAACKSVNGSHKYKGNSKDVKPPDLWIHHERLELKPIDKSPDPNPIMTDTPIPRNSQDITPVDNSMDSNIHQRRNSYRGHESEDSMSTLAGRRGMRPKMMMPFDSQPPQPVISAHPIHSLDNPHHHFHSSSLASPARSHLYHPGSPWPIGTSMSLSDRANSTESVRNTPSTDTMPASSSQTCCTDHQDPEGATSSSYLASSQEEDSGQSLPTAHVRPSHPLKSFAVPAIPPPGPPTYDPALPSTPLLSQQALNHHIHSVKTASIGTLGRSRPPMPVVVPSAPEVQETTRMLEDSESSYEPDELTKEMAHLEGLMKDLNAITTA
UniProt O95167, whole entry, looked up: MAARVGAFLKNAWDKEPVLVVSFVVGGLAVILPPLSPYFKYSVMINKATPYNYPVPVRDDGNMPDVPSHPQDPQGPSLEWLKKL
UniProt O00483, whole entry, looked up: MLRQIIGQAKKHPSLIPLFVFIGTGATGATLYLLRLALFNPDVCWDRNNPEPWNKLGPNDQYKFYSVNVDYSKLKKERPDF
UniProt Q12857, whole entry, looked up: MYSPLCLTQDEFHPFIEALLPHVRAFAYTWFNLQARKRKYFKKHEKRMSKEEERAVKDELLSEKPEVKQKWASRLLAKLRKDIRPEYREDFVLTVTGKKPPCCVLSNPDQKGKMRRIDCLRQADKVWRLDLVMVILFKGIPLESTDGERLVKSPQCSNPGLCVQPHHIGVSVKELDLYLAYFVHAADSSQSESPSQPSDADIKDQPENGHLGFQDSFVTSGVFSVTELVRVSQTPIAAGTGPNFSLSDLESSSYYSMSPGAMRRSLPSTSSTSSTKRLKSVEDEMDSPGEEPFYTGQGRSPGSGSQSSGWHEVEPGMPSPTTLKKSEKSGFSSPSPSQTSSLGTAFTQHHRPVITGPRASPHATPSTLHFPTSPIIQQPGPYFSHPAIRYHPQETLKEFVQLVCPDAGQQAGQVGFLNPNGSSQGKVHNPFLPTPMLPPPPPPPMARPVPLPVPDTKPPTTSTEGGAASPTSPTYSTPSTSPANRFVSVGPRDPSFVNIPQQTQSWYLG
UniProt Q330K2: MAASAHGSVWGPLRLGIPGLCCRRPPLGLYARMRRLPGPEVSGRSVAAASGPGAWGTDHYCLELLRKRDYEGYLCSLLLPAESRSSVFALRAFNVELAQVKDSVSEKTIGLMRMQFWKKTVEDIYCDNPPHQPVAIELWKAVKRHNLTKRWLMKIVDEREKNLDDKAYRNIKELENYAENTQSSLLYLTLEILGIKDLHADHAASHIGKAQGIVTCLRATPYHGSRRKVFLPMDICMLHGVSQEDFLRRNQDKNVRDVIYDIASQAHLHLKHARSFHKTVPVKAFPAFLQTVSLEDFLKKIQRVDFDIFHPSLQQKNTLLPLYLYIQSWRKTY
UniProt O95096: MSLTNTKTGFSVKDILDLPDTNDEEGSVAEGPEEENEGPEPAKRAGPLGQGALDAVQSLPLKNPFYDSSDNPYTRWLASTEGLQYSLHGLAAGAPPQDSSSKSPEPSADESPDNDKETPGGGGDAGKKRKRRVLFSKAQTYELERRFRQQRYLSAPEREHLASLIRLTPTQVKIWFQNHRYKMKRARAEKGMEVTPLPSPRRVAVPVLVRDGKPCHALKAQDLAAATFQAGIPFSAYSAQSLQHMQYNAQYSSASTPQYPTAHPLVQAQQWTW
UniProt Q9NXR1: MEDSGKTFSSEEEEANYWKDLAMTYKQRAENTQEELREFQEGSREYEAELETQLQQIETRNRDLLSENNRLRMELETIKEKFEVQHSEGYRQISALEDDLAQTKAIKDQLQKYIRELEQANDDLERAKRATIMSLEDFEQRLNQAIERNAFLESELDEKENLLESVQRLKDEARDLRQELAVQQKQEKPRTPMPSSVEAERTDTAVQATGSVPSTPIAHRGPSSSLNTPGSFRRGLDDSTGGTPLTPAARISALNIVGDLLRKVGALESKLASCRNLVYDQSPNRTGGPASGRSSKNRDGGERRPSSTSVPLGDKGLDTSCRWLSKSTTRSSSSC
UniProt Q96PU5: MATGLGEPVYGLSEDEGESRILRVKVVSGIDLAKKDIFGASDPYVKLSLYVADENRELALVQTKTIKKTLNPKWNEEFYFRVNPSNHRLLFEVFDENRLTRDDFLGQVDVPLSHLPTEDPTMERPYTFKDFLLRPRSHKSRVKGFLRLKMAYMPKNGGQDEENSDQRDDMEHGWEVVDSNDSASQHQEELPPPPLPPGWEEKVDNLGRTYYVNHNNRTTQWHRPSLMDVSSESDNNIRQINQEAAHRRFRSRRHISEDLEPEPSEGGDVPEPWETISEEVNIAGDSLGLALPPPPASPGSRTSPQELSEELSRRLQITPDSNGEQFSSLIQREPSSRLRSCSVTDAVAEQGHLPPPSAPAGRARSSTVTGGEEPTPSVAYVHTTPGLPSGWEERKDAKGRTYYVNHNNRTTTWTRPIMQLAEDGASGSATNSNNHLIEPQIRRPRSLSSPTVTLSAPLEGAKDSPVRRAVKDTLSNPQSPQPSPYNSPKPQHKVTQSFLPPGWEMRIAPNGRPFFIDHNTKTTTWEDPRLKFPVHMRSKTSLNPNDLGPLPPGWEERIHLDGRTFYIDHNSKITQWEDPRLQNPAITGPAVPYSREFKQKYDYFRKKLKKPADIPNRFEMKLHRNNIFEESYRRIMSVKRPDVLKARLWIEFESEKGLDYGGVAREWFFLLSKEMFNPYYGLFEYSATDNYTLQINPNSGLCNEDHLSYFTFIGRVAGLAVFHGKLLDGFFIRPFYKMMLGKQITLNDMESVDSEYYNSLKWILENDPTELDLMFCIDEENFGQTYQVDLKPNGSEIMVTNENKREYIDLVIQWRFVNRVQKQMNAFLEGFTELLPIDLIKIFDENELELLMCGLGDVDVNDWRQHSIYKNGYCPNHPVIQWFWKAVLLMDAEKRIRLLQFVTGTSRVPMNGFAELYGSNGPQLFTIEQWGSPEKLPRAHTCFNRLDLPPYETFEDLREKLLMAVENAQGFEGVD
UniProt Q6NW34: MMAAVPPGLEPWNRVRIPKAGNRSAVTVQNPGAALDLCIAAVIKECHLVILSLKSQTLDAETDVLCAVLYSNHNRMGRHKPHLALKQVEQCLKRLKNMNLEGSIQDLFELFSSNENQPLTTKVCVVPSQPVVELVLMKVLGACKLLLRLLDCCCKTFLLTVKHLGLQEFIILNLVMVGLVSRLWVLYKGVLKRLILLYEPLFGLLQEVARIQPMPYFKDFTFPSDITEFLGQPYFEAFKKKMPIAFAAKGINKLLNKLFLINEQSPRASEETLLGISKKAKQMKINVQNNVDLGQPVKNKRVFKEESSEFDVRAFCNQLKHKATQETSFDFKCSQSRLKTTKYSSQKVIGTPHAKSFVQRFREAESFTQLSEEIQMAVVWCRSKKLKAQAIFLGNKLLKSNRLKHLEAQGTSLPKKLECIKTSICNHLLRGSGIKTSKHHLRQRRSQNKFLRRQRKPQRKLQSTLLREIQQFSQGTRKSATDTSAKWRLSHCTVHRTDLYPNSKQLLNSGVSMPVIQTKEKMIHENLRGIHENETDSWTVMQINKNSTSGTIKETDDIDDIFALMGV
UniProt P56181: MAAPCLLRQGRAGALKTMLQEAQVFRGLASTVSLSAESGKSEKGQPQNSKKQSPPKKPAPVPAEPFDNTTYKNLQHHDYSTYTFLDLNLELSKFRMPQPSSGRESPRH

Compound: C1=CC=C(C=C1)[C@H](COC2=CC3=C(C=C2)NC(=O)N3)NC(=O)C4=CC=CN(C4=O)CC5=CC(=C(C=C5)F)F
Assay: log2 fold change, soluble protein after heating vs DMSO (PISA); higher = thermal stabilisation; K562 lysate, 10 uM; active = over 0.2 and 3.5 SD of the protein, either way, in both replicates (recomputed)
Outline: (§1)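 K562 pellets were dounce-homogenised in PBS pH 7.4 with 1 mM MgCl2, and the crude extract at 1 mg/mL protein was treated with 10 μM compound for 30 min. Aliquots were heated for 3 min across 48°C-58°C, pooled, and brought to 0.5% NP-40 at 4°C; soluble protein was the supernatant after 21,000xg for 90 min. Soluble protein was quantified by TMTpro 16plex LC-MS/MS with channel sums equalised, and reported as log2 fold change in thermal stability against DMSO controls, with values from duplicates.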

Target	log2 fold change
NIF3L1 (UniProt Q9GZT8)	inactive: 0.046
NENF (UniProt Q9UMX5)	inactive: 0.009
NDUFS1 isoform 2 (UniProt P28331)	inactive: 0.009
NDUFAB1 (UniProt O14561)	inactive: 0.063
NIPSNAP3B (UniProt Q9BS92)	inactive: -0.057
NIPSNAP2 (UniProt O75323)	inactive: 0.057
NEO1 (UniProt Q92859)	inactive: 0.093
NIPA1 (UniProt Q7RTP0)	inactive: -0.095
NDUFA7 (UniProt M0R0N0)	inactive: -0.084
NDUFB10 (UniProt O96000)	inactive: -0.001
NDUFA3 (UniProt O95167)	inactive: -0.079
NDUFA4 (UniProt O00483)	inactive: -0.019
NFIA isoform 4 (UniProt Q12857)	inactive: 0
NDUFAF6 (UniProt Q330K2)	inactive: -0.072
NKX2-2 (UniProt O95096)	inactive: -0.046
NDE1 isoform 1 (UniProt Q9NXR1)	inactive: -0.022
NEU4 (UniProt C9JEA3)	inactive: 0.061
NEDD4L (UniProt Q96PU5)	inactive: 0.018
NEPRO (UniProt Q6NW34)	inactive: -0.032
NDUFV3 isoform 2 (UniProt P56181)	inactive: 0.036

Compound: CC1=C(SC2=C1C(=N[C@H](C3=NN=C(N32)C)CC(=O)N)C4=CC=C(C=C4)Cl)C
Assay: as above
Outline: as §1

Target	log2 fold change
NIF3L1 (UniProt Q9GZT8)	inactive: -0.002
NENF (UniProt Q9UMX5)	inactive: -0.056
NDUFS1 isoform 2 (UniProt P28331)	inactive: -0.003
NDUFAB1 (UniProt O14561)	inactive: -0.052
NIPSNAP3B (UniProt Q9BS92)	inactive: 0.005
NIPSNAP2 (UniProt O75323)	inactive: -0.023
NEO1 (UniProt Q92859)	inactive: 0.185
NIPA1 (UniProt Q7RTP0)	inactive: 0.035
NDUFA7 (UniProt M0R0N0)	inactive: 0.041
NDUFB10 (UniProt O96000)	inactive: 0.023
NDUFA3 (UniProt O95167)	inactive: 0.102
NDUFA4 (UniProt O00483)	inactive: -0.048
NFIA isoform 4 (UniProt Q12857)	inactive: 0.07
NDUFAF6 (UniProt Q330K2)	inactive: -0.025
NKX2-2 (UniProt O95096)	inactive: 0.094
NDE1 isoform 1 (UniProt Q9NXR1)	inactive: 0.031
NEU4 (UniProt C9JEA3)	inactive: 0.017
NEDD4L (UniProt Q96PU5)	inactive: 0.018
NEPRO (UniProt Q6NW34)	inactive: 0.16
NDUFV3 isoform 2 (UniProt P56181)	inactive: -0.018
